# Laboratory results published in publication PMC7206130.
# Amino acid sequences for entries named in this document (tags omitted). Residues count along the entry.
# UniProt P17931: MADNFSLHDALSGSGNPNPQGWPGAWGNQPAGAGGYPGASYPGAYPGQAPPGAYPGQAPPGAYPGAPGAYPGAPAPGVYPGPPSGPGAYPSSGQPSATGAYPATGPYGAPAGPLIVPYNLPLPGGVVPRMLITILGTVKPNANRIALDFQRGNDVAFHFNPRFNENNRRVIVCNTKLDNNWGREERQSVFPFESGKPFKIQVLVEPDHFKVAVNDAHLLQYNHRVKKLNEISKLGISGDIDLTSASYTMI
# UniProt O00206, residues 24-631: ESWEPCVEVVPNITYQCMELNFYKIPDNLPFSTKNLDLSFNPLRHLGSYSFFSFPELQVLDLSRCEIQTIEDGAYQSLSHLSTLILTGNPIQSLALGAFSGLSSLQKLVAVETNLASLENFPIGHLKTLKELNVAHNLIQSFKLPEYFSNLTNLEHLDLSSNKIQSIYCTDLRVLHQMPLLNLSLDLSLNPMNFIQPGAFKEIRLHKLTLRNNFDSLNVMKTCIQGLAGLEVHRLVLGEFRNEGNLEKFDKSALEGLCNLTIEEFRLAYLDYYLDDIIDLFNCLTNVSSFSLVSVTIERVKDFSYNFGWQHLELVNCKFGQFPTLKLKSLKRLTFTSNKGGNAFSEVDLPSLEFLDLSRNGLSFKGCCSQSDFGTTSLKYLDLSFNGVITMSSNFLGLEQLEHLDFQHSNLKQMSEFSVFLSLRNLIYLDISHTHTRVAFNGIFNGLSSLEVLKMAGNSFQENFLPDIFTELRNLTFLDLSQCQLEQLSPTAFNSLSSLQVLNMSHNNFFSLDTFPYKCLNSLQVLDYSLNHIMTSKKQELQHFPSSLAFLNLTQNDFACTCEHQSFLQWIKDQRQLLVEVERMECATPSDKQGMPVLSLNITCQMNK
# These are yes or no findings as the source states them, for the method shown. Some results given as binding are weak or reduced against the parent protein; the word gives no strength.
# Target: recombinant human Gal-3 protein (human) (UniProt P17931)
# Experiment: co-IP; recombinant human Gal-3 (0.6 μg) mixed with recombinant human TLR4 or TREM2 (0.6 μg each) in RIPA buffer; precipitated with rat anti-Gal-3 antibody at 4 °C overnight, protein G Mag Sepharose Xtra beads; rat IgG as control; both purified
substance,measurement,value
recombinant human TLR4 protein (from UniProt O00206 24-631) (receptor),binding,binds
